From the supplement of paper PMC6143611
± gives the uncertainty stated by the source. Some of the results follow. Part of the spread comes from offsets between plates or batches.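 Larvae carried a heat-shock-induced fluorescent stripe in rod outer segments, set at 6 dpf; the shedding distance runs from this stripe to the outer segment tip, measured in confocal stacks, about three fish per compound. The controls got 0.2% DMSO vehicle, and the paper flagged compounds with at least a 20% change against the same-week control and p < 0.001 (Dunnett test on mixed-effects models).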

These molecules were tested on Danio rerio larva rod photoreceptor outer segment (assay: rod outer segment shedding distance Ds, difference from same-week DMSO control mean; higher = less outer segment shedding). Conditions: 20 µM; treatment time: 4 days (6-10 dpf).

| Structure (SMILES) | rod outer segment shedding distance Ds [um] |
| --- | --- |
| CC(=O)O[C@@]12CO[C@@H]1C[C@H](O)[C@@]1(C)C(=O)[C@H](O)C3=C(C)[C@@H](OC(=O)[C@H](O)[C@@H](NC(=O)OC(C)(C)C)c4ccccc4)C[C@@](O)([C@@H](OC(=O)c4ccccc4)[C@H]21)C3(C)C [Docetaxel] | -0.94 ± 0.26 |
| CC(C)(F)C[C@H](N[C@@H](c1ccc(-c2ccc(S(C)(=O)=O)cc2)cc1)C(F)(F)F)C(=O)NC1(C#N)CC1 [Odanacatib (MK-0822)] | -0.73 ± 0.22 |
| CC(C)[C@@H](C)/C=C/[C@@H](C)[C@H]1CC[C@H]2C3=CC=C4C[C@@H](O)CC[C@]4(C)[C@H]3CC[C@]12C [Ergosterol] | -0.06 ± 0.31 |
| CC(C(=O)O)c1ccc(C(=O)c2cccs2)cc1 (stereo not given) [Suprofen] | -0.33 ± 0.15 |
| COC(c1ccccc1)(c1ccccc1)[C@H](Oc1nc(C)cc(C)n1)C(=O)O [Ambrisentan] | -0.23 ± 0.27 |
